Results are given in words; binding and its absence hold for the method and conditions named. In cells and extracts the contact can be indirect. Some entries that bind do so weakly or less than the wild type. Sequences can lack the tags named with a protein.

The target of this assay is T1, GFP-mRbm14 (mouse) (UniProt Q8C2Q3).
T1 sequence: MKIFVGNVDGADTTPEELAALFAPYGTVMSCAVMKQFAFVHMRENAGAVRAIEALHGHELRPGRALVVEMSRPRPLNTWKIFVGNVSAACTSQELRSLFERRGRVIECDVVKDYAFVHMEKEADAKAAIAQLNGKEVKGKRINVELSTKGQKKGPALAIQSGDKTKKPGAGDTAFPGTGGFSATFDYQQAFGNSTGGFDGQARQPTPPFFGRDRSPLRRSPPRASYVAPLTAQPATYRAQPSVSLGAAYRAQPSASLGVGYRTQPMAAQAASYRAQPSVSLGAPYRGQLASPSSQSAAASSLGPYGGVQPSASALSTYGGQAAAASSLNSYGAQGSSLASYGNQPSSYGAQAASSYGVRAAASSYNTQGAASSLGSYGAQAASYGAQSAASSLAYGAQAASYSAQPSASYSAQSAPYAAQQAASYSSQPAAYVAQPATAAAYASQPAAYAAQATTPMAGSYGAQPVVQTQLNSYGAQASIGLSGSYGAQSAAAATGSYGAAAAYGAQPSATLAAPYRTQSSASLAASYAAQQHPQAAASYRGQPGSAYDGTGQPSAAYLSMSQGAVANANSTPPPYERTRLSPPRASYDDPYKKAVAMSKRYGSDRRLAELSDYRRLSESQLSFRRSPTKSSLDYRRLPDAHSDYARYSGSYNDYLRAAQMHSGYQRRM
As to the kind of experiment: co-IP; GFP, GFP-mRbm14 or GFP-zRbm14b expressed in HeLa cells, immunoprecipitated with anti-GFP resin; immunoblot for endogenous hnRNP proteins. On the technique in general: In western blotting, separated proteins are transferred to a membrane and probed.

B1: hnRNPL (human) (protein, UniProt P14866 1-589)
chain: MSRRLLPRAEKRRRRLEQRQQPDEQRRRSGAMVKMAAAGGGGGGGRYYGGGSEGGRAPKRLKTDNAGDQHGGGGGGGGGAGAAGGGGGGENYDDPHKTPASPVVHIRGLIDGVVEADLVEALQEFGPISYVVVMPKKRQALVEFEDVLGACNAVNYAADNQIYIAGHPAFVNYSTSQKISRPGDSDDSRSVNSVLLFTILNPIYSITTDVLYTICNPCGPVQRIVIFRKNGVQAMVEFDSVQSAQRAKASLNGADIYSGCCTLKIEYAKPTRLNVFKNDQDTWDYTNPNLSGQGDPGSNPNKRQRQPPLLGDHPAEYGGPHGGYHSHYHDEGYGPPPPHYEGRRMGPPVGGHRRGPSRYGPQYGHPPPPPPPPEYGPHADSPVLMVYGLDQSKMNCDRVFNVFCLYGNVEKVKFMKSKPGAAMVEMADGYAVDRAITHLNNNFMFGQKLNVCVSKQPAIMPGQSYGLEDGSCSYKDFSESRNNRFSTPEQAAKNRIQHPSNVLHFFNAPLEVTEENFFEICDELGVKRPSSVKVFSGKSERSSSGLLEWESKSDALETLGFLNHYQMKNPNGPYPYTLKLCFSTAQHAS
B1: the binding result is given as “binds”.
